This note sets out measurements from publication PMC8771839.

The chains behind the UniProt entries cited, without tags or fusion partners.
UniProt Q13200: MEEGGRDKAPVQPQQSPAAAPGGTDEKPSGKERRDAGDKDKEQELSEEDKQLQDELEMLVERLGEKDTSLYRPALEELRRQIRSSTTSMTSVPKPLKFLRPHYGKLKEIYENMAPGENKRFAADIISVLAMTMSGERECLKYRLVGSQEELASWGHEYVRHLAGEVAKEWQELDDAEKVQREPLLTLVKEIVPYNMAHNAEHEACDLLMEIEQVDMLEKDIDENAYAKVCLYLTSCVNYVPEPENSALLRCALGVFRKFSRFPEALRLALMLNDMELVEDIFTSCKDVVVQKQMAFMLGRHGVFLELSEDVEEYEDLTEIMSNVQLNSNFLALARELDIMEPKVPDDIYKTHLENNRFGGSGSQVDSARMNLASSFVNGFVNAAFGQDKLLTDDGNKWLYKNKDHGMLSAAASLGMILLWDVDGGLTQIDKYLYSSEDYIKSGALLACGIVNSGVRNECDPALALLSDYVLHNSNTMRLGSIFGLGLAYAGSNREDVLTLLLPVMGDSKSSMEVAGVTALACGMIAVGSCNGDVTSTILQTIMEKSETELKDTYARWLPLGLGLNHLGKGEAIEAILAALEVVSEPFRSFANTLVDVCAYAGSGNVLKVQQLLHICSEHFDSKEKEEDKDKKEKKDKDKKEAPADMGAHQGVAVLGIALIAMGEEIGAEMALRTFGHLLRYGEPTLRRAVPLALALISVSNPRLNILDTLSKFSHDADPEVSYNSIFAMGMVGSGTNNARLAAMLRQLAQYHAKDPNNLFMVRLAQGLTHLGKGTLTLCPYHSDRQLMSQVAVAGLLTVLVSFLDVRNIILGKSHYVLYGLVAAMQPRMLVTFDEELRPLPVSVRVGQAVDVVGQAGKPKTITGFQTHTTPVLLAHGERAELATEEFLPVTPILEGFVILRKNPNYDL

For this test, the target named is T1, DIRAS family GTPase 2 (DIRAS2), FLAG-tagged (human) (UniProt Q96HU8).
T1 sequence: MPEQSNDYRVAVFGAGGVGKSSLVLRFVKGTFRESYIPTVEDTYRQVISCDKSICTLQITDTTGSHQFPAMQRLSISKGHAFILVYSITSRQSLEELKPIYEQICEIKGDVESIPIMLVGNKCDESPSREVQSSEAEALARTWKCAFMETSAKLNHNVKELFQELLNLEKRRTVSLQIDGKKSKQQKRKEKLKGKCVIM
The experiment in a line: affinity purification with mass spectrometry; FLAG-tagged protein enrichment from oe-DIRAS2 RKO cells and their controls; Coomassie blue-stained gel, then LC-MS.

No constants are given. Whether binding was seen depends on the method and setting. Binding seen in cells or lysates may run through a third protein. Here binding means that the protein was enriched with, or labelled near, the bait; the list need not be complete. Tags and fused reporters may be left off the sequences shown.

Consider “26S proteasome non-ATPase regulatory subunit 2 (PSMD2) (from UniProt Q13200 1-908)”, for which the binding entry is listed as “binds”.
